Experimental data published in US20140212439A1 (Daiichi Sankyo, published 2014).
Where a chain is given by its changes, count along the chain named. No constants are given. Whether binding was seen depends on the method and setting. Some results given as binding are weak or reduced against the parent protein; the word gives no strength.

By UniProt entry, the sequences of proteins in these tests, tags left out. Where a name states a change or a piece, a line headed by the entry shows the natural chain unless it says otherwise. Residues count along the entry.
UniProt P29317, residues 24-537: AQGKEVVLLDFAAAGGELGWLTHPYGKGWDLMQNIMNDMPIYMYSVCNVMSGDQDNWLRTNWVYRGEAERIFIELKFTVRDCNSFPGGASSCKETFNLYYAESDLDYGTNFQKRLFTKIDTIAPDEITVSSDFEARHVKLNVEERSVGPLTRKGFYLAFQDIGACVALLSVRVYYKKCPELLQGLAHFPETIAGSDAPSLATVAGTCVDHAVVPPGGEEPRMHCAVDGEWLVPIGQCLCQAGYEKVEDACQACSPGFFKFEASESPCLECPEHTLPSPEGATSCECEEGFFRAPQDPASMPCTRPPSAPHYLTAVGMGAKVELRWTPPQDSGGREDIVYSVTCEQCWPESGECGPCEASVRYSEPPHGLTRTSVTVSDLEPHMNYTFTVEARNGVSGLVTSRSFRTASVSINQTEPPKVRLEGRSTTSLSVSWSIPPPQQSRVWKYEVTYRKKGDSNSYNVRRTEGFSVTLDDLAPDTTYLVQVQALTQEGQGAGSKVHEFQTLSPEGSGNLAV

Legend:
[1] = target: EPHA2 deletion mutant m2 (amino acid Nos. 426 to 534 of SEQ ID NO: 8) (human) (UniProt P29317); experiment: Western blot on EPHA2 deletion mutants, antibody at 2 µg/ml
[2] = target: EPHA2 deletion mutant m1 (amino acid Nos. 426 to 540 of SEQ ID NO: 8) (human) (UniProt P29317); experiment: as above
[3] = target: EPHA2 extracellular region polypeptide (R&D Systems, #3035-A2-100) (UniProt P29317); experiment: ELISA, EPHA2 extracellular region coated at 1 µg/ml, antibody at 1.25×10^-4 to 125 µg/ml
[4] = target: EPHA2 extracellular region polypeptide (R&D Systems, #3035-A2-100) (UniProt P29317); experiment: ELISA on coated EPHA2 extracellular region, anti-human IgG Fc secondary antibody

B1: SH348-1 (antibody produced by hybridoma SH348-1, FERM BP-10836) (antibody, mouse IgG2a, kappa, V domains shown)
VH: QIQLVQSGPELKKPGETVKISCKASGYTFTHYSMHWVKQAPGKGLKWMGWINTYTGEPTYADDFKGRFAFSLETSASTAFLQINNLKNEDTATYFCATYYRYERDFDYWGQGTTLTVSS
VL: DVLMTQSPLSLPVSLGDQASISCRSSQSIVHSNGNTYLEWYLQKPGQSPKLLIYKVSNRFSGVPDRFSGSGSGTDFTLRISRVEAEDLGVYYCFQGSHVPYTFGGGTKLEIKR
modifications: N-terminal pyroglutamic acid
notes: Mouse monoclonal IgG2a, kappa; The ends of the cDNAs are primer-derived; also called bSH348-1 (biotinylated form)
In the case of B1, the binding [1] is reported as “binds”, the binding [2] is reported as “binds” and the binding [3] is reported as “binds”.

B2: SH357-1 (antibody produced by hybridoma SH357-1, FERM BP-10837) (antibody, mouse IgG2a, kappa, V domains shown)
VH: B1 VH with T30I, H31D, A61S, F80Y, N84S, T93S
VL: B1 VL with S7T, N33S, N35I, R79K
notes: Mouse monoclonal IgG2a, kappa; also called bSH357-1 (biotinylated form)
For B2, the binding [1] was “binds”, the binding [2] was “binds” and the binding [3] was “binds”.

B3: hSH348-1-T1 (antibody, human IgG1, kappa, V domains shown)
VH: QVQLVQSGAEVKKPGSSVKVSCKASGYTFTHYSMHWVRQAPGQGLEWMGWINTYTGEPTYADDFKGRVTITADTSTSTAYLELSSLRSEDTAVYYCATYYRYERDFDYWGQGTLVTVSS
VL: DIVMTQSPLSLPVTPGEPASISCRSSQSIVHSNGNTYLEWYLQKPGQSPQLLIYKVSNRFSGVPDRFSGSGSGTDFTLKISRVEAEDVGVYYCFQGSHVPYTFGQGTKVEIKR
In the case of B3, the binding [4] is reported as “binds”.

B4: hSH348-1-T3 (antibody, human IgG1, kappa, V domains shown)
VH: B3 VH with V2I, E46K, V68F, T69A, I70F, T71S, A72L
VL: B3 VL with I2V, V3L
In the case of B4, the binding [4] is reported as “binds”.

B5: hSH357-1-T1 (antibody, human IgG1, kappa, V domains shown)
VH: B3 VH with S16A, T30I, H31D, A61S
VL: B3 VL with N33S, N35I
In the case of B5, the binding [4] is reported as “binds”.

B6: hSH357-1-T3 (antibody, human IgG1, kappa, V domains shown)
VH: QIQLVQSGAEVKKPGASVKVSCKASGYTFIDYSMHWVRQAPGQGLKWMGWINTYTGEPTYSDDFKGRFAFSLDTSTSTAYLELSSLRSEDTAVYYCATYYRYERDFDYWGQGTLVTVSS
VL: B3 VL with I2V, V3L, N33S, N35I
In the case of B6, the binding [4] is reported as “binds”.
